Measurements as given in the supplement of paper PMC12819154, “High-throughput peptide-centric local stability assay extends protein–ligand identification to membrane proteins, tissues and bacteria” (Nature Structural & Molecular Biology, 2025).
This is one part of the list. Most values lie at the level of the controls, where differences are scatter.

By UniProt entry, the sequences of proteins in these tests, tags left out. Where a name states a change or a piece, a line headed by the entry shows the natural chain unless it says otherwise.
UniProt Q8VC28: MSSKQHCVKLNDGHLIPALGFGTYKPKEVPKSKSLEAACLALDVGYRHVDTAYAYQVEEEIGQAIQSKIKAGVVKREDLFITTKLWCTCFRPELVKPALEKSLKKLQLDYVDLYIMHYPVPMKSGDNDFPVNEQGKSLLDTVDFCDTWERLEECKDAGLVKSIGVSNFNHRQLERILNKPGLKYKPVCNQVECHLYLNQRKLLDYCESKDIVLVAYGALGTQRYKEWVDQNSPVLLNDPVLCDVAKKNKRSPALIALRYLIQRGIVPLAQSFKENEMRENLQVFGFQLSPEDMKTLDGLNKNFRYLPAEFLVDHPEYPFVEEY
UniProt Q8VD75: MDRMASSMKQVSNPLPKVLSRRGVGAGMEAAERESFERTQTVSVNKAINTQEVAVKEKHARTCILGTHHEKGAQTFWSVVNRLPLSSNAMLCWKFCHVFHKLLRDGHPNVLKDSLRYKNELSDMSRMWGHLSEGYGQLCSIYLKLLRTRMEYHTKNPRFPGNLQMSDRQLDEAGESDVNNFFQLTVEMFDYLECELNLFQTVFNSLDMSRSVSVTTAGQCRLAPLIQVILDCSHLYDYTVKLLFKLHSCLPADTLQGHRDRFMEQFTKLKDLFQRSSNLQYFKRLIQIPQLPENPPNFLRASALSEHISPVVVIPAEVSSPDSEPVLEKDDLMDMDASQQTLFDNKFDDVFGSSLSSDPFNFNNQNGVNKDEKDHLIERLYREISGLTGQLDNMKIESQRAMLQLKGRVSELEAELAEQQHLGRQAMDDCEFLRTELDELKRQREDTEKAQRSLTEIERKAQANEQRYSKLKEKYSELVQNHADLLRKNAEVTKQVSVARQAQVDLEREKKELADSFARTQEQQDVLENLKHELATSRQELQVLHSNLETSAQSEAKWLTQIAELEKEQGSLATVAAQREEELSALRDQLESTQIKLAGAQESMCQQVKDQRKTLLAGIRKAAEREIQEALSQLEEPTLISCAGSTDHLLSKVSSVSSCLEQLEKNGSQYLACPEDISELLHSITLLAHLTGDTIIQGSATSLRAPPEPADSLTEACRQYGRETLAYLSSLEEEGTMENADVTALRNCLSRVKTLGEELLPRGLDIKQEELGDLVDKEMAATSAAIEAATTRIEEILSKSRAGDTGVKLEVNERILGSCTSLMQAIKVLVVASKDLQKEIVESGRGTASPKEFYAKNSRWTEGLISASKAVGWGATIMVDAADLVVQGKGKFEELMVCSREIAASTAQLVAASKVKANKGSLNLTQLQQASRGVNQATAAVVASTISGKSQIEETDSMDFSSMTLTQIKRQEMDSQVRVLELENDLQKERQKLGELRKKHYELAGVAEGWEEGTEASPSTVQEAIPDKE
UniProt Q8VCU1: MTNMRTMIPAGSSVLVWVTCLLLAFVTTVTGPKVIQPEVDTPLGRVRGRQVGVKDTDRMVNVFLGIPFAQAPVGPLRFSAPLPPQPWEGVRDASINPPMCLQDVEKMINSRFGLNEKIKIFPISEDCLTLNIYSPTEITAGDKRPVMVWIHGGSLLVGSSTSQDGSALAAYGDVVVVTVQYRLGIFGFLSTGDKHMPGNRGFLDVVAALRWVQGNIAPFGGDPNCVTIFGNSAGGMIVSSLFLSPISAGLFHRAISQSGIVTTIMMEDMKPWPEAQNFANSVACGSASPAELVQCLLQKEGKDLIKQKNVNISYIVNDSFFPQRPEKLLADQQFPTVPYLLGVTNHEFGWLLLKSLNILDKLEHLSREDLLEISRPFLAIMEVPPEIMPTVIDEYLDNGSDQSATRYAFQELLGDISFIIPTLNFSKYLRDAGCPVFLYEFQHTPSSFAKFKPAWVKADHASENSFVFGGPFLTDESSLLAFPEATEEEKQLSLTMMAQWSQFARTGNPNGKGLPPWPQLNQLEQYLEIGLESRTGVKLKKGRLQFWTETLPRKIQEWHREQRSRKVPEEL
UniProt Q8VE19: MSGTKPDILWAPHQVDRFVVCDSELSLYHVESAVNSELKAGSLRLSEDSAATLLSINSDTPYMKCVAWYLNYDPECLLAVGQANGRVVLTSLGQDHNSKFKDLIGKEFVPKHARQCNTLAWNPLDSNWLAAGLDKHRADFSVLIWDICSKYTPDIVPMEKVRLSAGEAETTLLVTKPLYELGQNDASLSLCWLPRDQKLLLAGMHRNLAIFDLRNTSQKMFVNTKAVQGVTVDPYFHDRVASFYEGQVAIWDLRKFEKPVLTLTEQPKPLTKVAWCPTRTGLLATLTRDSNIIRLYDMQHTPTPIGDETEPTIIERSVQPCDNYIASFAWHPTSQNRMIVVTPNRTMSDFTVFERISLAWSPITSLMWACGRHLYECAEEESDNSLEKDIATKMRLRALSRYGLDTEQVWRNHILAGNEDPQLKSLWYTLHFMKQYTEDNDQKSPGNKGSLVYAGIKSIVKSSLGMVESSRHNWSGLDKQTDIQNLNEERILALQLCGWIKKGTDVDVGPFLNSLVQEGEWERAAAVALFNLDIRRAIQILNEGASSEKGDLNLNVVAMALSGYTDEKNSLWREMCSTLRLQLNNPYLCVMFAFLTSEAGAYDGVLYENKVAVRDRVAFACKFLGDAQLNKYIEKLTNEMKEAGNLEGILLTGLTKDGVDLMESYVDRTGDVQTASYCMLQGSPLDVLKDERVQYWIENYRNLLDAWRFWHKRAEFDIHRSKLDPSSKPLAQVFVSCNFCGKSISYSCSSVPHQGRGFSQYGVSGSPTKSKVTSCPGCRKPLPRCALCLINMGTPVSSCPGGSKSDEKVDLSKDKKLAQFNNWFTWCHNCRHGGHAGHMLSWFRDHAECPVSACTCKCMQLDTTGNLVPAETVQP
UniProt Q8R3R5: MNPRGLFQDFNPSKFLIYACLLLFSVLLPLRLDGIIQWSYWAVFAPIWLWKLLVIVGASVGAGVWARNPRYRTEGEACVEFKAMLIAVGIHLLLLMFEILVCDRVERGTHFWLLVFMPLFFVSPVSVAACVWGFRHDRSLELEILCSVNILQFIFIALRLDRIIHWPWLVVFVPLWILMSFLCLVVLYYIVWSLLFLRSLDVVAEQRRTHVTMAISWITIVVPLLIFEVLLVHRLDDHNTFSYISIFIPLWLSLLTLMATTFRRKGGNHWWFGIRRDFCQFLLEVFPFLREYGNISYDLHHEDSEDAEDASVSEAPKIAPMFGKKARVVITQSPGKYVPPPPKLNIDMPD

Compound: CN[C@@H]1C[C@H]2O[C@@](C)([C@@H]1OC)n1c3ccccc3c3c4c(c5c6ccccc6n2c5c31)C(=O)NC4 [staurosporine]
Test: log2 fold change of tryptic peptide abundance, ligand vs vehicle (limited proteolysis) (log2 ratio); higher = more trypsin-susceptible (destabilized)
Conditions: ligand concentration: 20 uM; sample: mouse liver crude lysate; replicate design: treated separately

Which log2 fold change does the source give for “UniProt Q8VC28 (peptide sequence: LNDGHLIPALGFGTYKPK, peptide start residue: 10)” here?
Its log2 fold change is -0.253.

With “UniProt Q8VD75 (peptide sequence: AINTQEVAVKEK, peptide start residue: 47)” as the target, how does the log2 fold change read?
Its log2 fold change is 0.368.

For “UniProt Q8VCU1 (peptide sequence: SLNILDKLEHLSR, peptide start residue: 355)”, which log2 fold change is on record?
The log2 fold change was 0.0883.

With “UniProt Q8VE19 (peptide sequence: AVQGVTVDPYFHDR, peptide start residue: 226)” as the target, how does the log2 fold change read?
The log2 fold change was -0.493.

Which log2 fold change does the source give for “UniProt Q8R3R5 (peptide sequence: IAPMFGKK, peptide start residue: 318)” here?
The log2 fold change was 0.137.

How did the log2 fold change turn out when “UniProt Q8VCQ3 (peptide sequence: LLAAGKYEEAISCHRK, peptide start residue: 21)” was run?
The log2 fold change was -0.221.
